# Results as given in PubChem BioAssay AID2417 (National Center for Advancing Translational Sciences (NCATS), 2010).
# Where “and” joins values, the source holds several entries; their conditions need not be identical. Equal values may be shown once. Screen size: about 140,000 compounds; about 4,300 (3.1%) were called active. Inconclusive results, whose numbers are uncertain, are shown with a selection of clear calls.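 The calls were made as follows: active = readout at or below -70, meaning at least 70% loss of cells showing the perinucleolar compartment, a nuclear body marking cancer cells; inconclusive = readout between -30 and a set limit; inactive = the rest.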
# Experiment: High Content Assay for Compounds that inhibit the Assembly of the Perinucleolar Compartment;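 also: plate controls were DMSO wells for no effect and camptothecin positive control wells for full effect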
# Conditions: PC3M PTB-GFP, PNC prevalence imaging, 16 h; at 10 µM; hits give low values
# In short: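 Read-out is percentage of cells bearing a perinucleolar compartment, from automated 20x imaging of fixed, Hoechst-stained PC3M PTB-GFP cells. Cells were seeded 4 h, then exposed 16 h to compound (23 nl of library stock) in duplicate plates.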
row,SMILES,"activity change (PNC), negative = inhibition"
1,CCOCCCNC(=O)CCCOc1ccccc1,inconclusive: -62.6%
2,C/C(=N\Nc1ccc(F)cc1)c1ccncc1,inconclusive: -71.3%
3,O=C(NC(=S)NCCN1CCOCC1)c1ccc(Cl)cc1,inconclusive: -32%
4,COc1cccc(-n2nnc3c(=O)n(CC(=O)N4CCC(C)CC4)cnc32)c1,inactive: 97.7%
5,Cc1nc(Nc2ccc3c(c2)OCCO3)c2oc3ccccc3c2n1,inconclusive: -34.7%
6,Cc1ccc(Nc2c3c(nc4ncnn24)CC(C)CC3)cc1 (stereo unspecified),inconclusive: -65.2%
7,COc1ccccc1CNC(=O)c1c(O)c2cc(OC)c(OC)cc2[nH]c1=O,inactive: 11.3%
8,O=C(OCC(=O)N1CCOCC1)c1ccccc1Cc1ccccc1,inconclusive: -60.8%
9,COc1ccc(-c2csc(NC(=O)CCn3cnc4ccccc4c3=O)n2)cc1OC,inactive: 54.3%
10,COc1ccc(N(C(=O)c2ccco2)S(=O)(=O)c2cccs2)cc1,inconclusive: -38.5%
11,O=C(COC(=O)COc1ccccc1[N+](=O)[O-])Nc1cccc(Br)c1,inactive: 7.02%
12,O=C(/C=C/c1ccc(Cl)cc1Cl)n1cccn1,inactive: 72.3%
13,Cc1nn(Cc2ccc(F)cc2)c(C)c1NC(=O)c1cnn2cccnc12,inconclusive: -41.7%
14,COc1ccc(CC(NC(C)=O)C(=O)NC2CCN(c3c(Cc4ccccc4)c(C)nc4ncnn34)CC2)cc1OC (stereo unspecified),inactive: 14.8%
15,Cc1cc(Cl)c(S(=O)(=O)N2CCCCCC2)cc1OCC(N)=O,inconclusive: -33.3%
16,COc1cccc(/C=N/NC(=O)CCCC(=O)Nc2ccc(Br)cc2)c1,inconclusive: -33.6%
17,COc1cccc(-c2nc(C(N)=O)c3[nH]c(=O)n(-c4cccc(Cl)c4)c3n2)c1OC,inactive: -4.25%
18,O=C(CCC(=O)Nc1ccccc1)N/N=C/c1ccncc1,inactive: -9.33%
19,CCn1ccc(C(=O)Nc2c(C)nn(Cc3c(F)c(F)c(F)c(F)c3F)c2C)n1,inconclusive: -35.5%
20,COc1ccccc1OCCOCCOc1ccc(C)cc1Br,inconclusive: -41.8%
21,Cc1ccc(NC(=O)NC2CCCCC2)cc1Cl,inconclusive: -47%
22,CCC(OC(=O)c1cccs1)C(=O)NCc1ccco1 (stereo unspecified),active: -101%
23,COc1cc2c(C(=O)Nc3ccc4c(c3)OCO4)cn(CC(C)C)c(=O)c2cc1OC,inactive: -14.4%

row,SMILES,"activity change (PNC), negative = inhibition"
1,Cc1ccc(NC(=O)CSc2nnc(C)c(=O)n2N)c(C)c1,inactive: -12.7%
2,CC(=O)c1cc(F)c(N2CCN(C(=O)COc3ccc(F)cc3)CC2)cc1C,active: -100%
3,C=CCNS(=O)(=O)c1ccc(OC)c(C)c1,inconclusive: -31.1%
4,C=CCSc1nc2c(c(=O)[nH]c(=O)n2C)n1Cc1ccc(C)cc1,inconclusive: -31.7%
5,CCOC(=O)c1sc(NC(=O)CSc2ncccn2)c(C#N)c1C,inconclusive: -33.5%
6,Clc1cc2c(c(Cn3cnc4ccccc43)c1)OCOC2,active: -100%
7,CC1(C)SC(=S)N(Cc2ccc3c(c2)OCO3)C1N(O)C(=O)NC1CCCCC1 (stereo unspecified),inconclusive: -32.8%
8,O=[N+]([O-])c1cccc(-c2ccc(/C=N/n3c(-c4ccccc4)n[nH]c3=S)o2)c1,inconclusive: -42.3%
9,CCOC(=O)c1c(N)sc(C(=O)N2CCOCC2)c1C,active: -100%
10,O=C(COC(=O)c1cc(Cl)ccc1[N+](=O)[O-])Nc1cccc2ccccc12,inconclusive: -73.4%
11,COc1ccc2c(c1)C(=O)N(c1ccc(C)cc1)C(=O)C2,inconclusive: -47.1%
12,O=C(Nc1cc(C(F)(F)F)ccc1N1CCOCC1)c1cccc(F)c1,inconclusive: -32.8%
13,CCC(=O)NC(Nc1ncc(C)s1)(C(=O)OC)C(F)(F)F (stereo unspecified),inactive: 37.9%
14,O=C(Nc1cccc(C(F)(F)F)c1)C(Sc1ncnc2ccccc12)c1ccccc1 (stereo unspecified),inconclusive: -53.3%
15,CCCCOCP(=O)(CCCC)COCCCC,inconclusive: -32.6%
16,O=[N+]([O-])c1ccc(-c2nc(NCc3ccccc3)c3ccccc3n2)cc1,inactive: -26%
17,COc1ccc(N2CCN(C(=O)c3cccc(Cn4cc(Cl)cn4)c3)CC2)cc1,active: -112%
18,Cc1c(NC(=O)c2cc(-c3ccccc3)on2)c(=O)n(-c2ccccc2)n1C,inconclusive: -39.8%
19,COc1cccc(C(=O)NN2c3ccccc3CCc3ccccc32)c1,inconclusive: -33.7%
20,CCN(CC)c1ccc(SS(=O)(=O)O)cc1,inactive: 10.4% and inactive: -0.136%
21,O=C1C2C(C(=O)N1Cc1ccco1)C1C=CC2C12CC2 (stereo unspecified),inconclusive: -56.3%
22,CC(C)(C)C1CCC(=NNC(=O)c2cc(-c3ccccc3)n[nH]2)CC1 (stereo unspecified),inconclusive: -37.7%
23,CC(Sc1cccc2cccc(C(=O)O)c12)C(=O)O (stereo unspecified),inactive: -25.5%

# Rewritten as tab-separated lines: 4 of the compounds above.
row	SMILES	activity change (PNC), negative = inhibition
12	O=C(Nc1cc(C(F)(F)F)ccc1N1CCOCC1)c1cccc(F)c1	inconclusive: -32.8%
13	CCC(=O)NC(Nc1ncc(C)s1)(C(=O)OC)C(F)(F)F (stereo unspecified)	inactive: 37.9%
14	O=C(Nc1cccc(C(F)(F)F)c1)C(Sc1ncnc2ccccc12)c1ccccc1 (stereo unspecified)	inconclusive: -53.3%
15	CCCCOCP(=O)(CCCC)COCCCC	inconclusive: -32.6%

# Remaining list, next part

row,SMILES,"activity change (PNC), negative = inhibition"
1,O=C(NC1CCCC1)C(c1ccccc1F)N(C(=O)c1ccco1)C1CCCC1 (stereo unspecified),inconclusive: -41%
2,CCOC(=O)C(NCc1ccccc1OC)(NC(=O)c1ccccc1)C(F)(F)F (stereo unspecified),inconclusive: -40.6%
3,O=[N+]([O-])c1ccc(Sc2nnnn2-c2ccccc2)c(Cl)c1,inactive: -2.19%
4,COc1cc(/C=N/Nc2ncc(C(F)(F)F)cc2Cl)cc(OC)c1O,inactive: -16.1%
5,CCC(c1nnnn1CCc1ccccc1)N(Cc1ccco1)Cc1cc2cc(C)cc(C)c2[nH]c1=O (stereo unspecified),inconclusive: -52.5%
6,Cc1ccc(/C=N/N2CCN(Cc3ccccc3)CC2)s1,inconclusive: -33.9%
7,COc1ccc(Cc2nc(C(=O)Nc3ccc(OC)cc3)cs2)cc1,inconclusive: -36.2%
8,C=CCn1c(C)cc(C(=O)COc2ccc(S(=O)(=O)N3CCCC3)cc2[N+](=O)[O-])c1C,inactive: 24.6%
9,COc1ccc(CSC(=N)N)cc1[N+](=O)[O-],inconclusive: -30.7%
10,CCN1C(=O)/C(=C2\C=Cc3ccccc3N2CC)SC1=S,inactive: -13.4%
11,CC(Oc1ccccc1)C(=O)Nc1nc2c(s1)C(=O)CC(C)(C)C2 (stereo unspecified),inconclusive: -46.1%
12,CCn1c(O)c(N=NC(=O)C2C(=O)NCC2c2ccccc2)c2ccccc21 (stereo unspecified),inconclusive: -36.2%
13,Nc1ccccc1C(=O)N(Cc1ccccc1)Cc1ccccc1,active: -100%
14,O=C(NC1CCCC1)c1ccc(S(=O)(=O)N2CCCC2)cc1,inactive: 50.8%
15,O=C(Nc1nnc(C2CC2)s1)c1cc(-c2ccccc2)nn1-c1ccccc1,active: -81.5%
16,CCC(NC(=O)Nc1nnc(C(F)(F)F)s1)(C(F)(F)F)C(F)(F)F,inconclusive: -30.4%
17,Nc1nc(N)nc(-c2ccccn2)n1,inconclusive: -45%
18,Cc1nc2c(sc3nc4c(cc32)COC(C)(C)C4)c(=O)n1Cc1ccccc1,inactive: -18.7%
19,O=C(Cc1ccccc1)N/N=C/c1cccs1,inactive: 22.2%
20,Cc1ccc(-c2cc(-c3ccc(Cl)cc3)c(C#N)c(N)n2)o1,inactive: -23.4%
21,CCOc1cc(/C=N/NC(N)=O)cc(Br)c1OCC(=O)Nc1ccccc1C,inconclusive: -38.8%
22,O=C(Nc1ccc(O)cc1)c1cc(S(=O)(=O)N2CCCC2)ccc1Cl,inactive: 7.05%
23,CSc1nnc(-c2cc(C)on2)n1-c1ccccc1,inconclusive: -44.3%

row,SMILES,"activity change (PNC), negative = inhibition"
1,CCOc1ccc(N(Cc2cc3ccc(C)cc3[nH]c2=O)C(=O)COC)cc1,inactive: 29.9%
2,O=C(OCC(=O)N1CCc2ccccc2C1)c1cccc([N+](=O)[O-])c1,inconclusive: -45.5%
3,O=C(NCCN1CCOCC1)c1ccc(=O)oc1,active: -127%
4,Nc1ccccc1Nc1cc(-c2ccccc2)nn1-c1cccc(Cl)c1,inactive: 1.64%
5,COc1ccc(Cn2nnnc2CN(Cc2cc3cccc(C)c3[nH]c2=O)C2CCCC2)cc1,inactive: 28.1%
6,CCOC(=O)Cn1c(=O)cnc2ccccc21,inconclusive: -46.6%
7,N#Cc1c(NC(=O)/C=C/c2ccco2)sc2c1CCCC2,active: -112%
8,Cc1ccc(SCC(=O)NC(=O)Nc2ccc3c(c2)OCCO3)c(C)c1,inconclusive: -51.7%
9,COc1ccc(NC(=S)NN2CCOCC2)cc1OC,inconclusive: -38.5%
10,Cc1ccccc1C(=O)Oc1ccc(Sc2ccc(O)cc2)cc1,inactive: 4.24%
11,O=C(NC(Cc1ccccc1)c1nc2ccccc2[nH]1)C1CC(=O)N(c2ccc3c(c2)OCCO3)C1 (stereo unspecified),inactive: -18.5%
12,Cc1occc1-c1nnc(SCC(=O)Nc2ccccc2-c2ccccc2)n1C,inactive: 15.3%
13,Cn1c(=O)[nH]c(=O)c2c1nc(N1CCOCC1)n2CCN1CCOCC1,inconclusive: -37.8%
14,CCOC(=O)Nc1ccc2c(c1)N(C(=O)CN(CC)CC)c1ccccc1C=C2,inconclusive: -54.7%
15,O=C(c1ccco1)N1CCN(c2ncnc3sc4c(c23)CCC4)CC1,inconclusive: -45.8%
16,CCOC(=O)c1c(N)sc(C(=O)Nc2ccc3c(c2)OCO3)c1C,inconclusive: -32.6%
17,Clc1ccc(-c2nc3ccncc3[nH]2)cc1,inactive: 12.8%
18,Cc1ccc(NS(=O)(=O)c2ccc(NC(=O)C3CCCO3)cc2)cc1 (stereo unspecified),inactive: 38.2%
19,COc1ccc(NC(=O)NN(C(=O)c2ccccc2)C(C)(C)C)cc1,inconclusive: -35.3%
20,Cc1cccc2cc(CN(Cc3ccccc3)C(=O)N(C)C)c(=O)[nH]c12,inconclusive: -54.2%
21,COc1ccc(N2CCN(c3ncnc4nc[nH]c34)CC2)cc1,inactive: -24.3%
22,CCOc1cc(NS(=O)(=O)c2ccc(NC(C)=O)cc2)c(OCC)cc1NC(=O)c1cccs1,inconclusive: -37.6%
